Test results from patent US5434132A, “Neuropeptide antagonists” (Imperial Cancer Research Technology, Ltd., priority 1988, dated 1995).
At least one peptide structure holds a part that was inferred or is arguable (an end, a ring closure or a residue). Non-standard residues stand in square brackets, D forms with d. Residues, ends and D or L forms follow the SMILES beside them. NMeF = CN[C@@H](Cc1ccccc1)C(=O)O

Legend:
[1] = tested on: Swiss 3T3 cells
[2] = tested on: SCLC cell lines; conditions: 20 μM; H510A
[3] = tested on: Swiss 3T3 cells; assay: Vasopressin-induced DNA synthesis in Swiss 3T3 cells; assay type: cell-based, murine
[4] = tested on: Swiss 3T3 cells; remark: listed apart in the source

CSCC[C@H](NC(=O)[C@H](CC(C)C)NC(=O)[C@@H](Cc1c[nH]c2ccccc12)NC(=O)[C@H](Cc1ccccc1)N(C)C(=O)[C@@H](Cc1c[nH]c2ccccc12)NC(=O)[C@@H](N)CCCNC(=N)N)C(N)=O [antagonist G, Arg.D-Trp.MePhe.D-Trp-Leu-Met-NH2.] (H-R[dW][NMeF][dW]LM-NH2)
potency relative to Antagonist D as antagonist of growth induced by GRP [1]: less potent
block of intracellular [Ca2+] responses to bradykinin, GRP and vasopressin [2]: blocked
potency relative to Antagonist D as antagonist of vasopressin induced cell growth [3]: as potent as Antagonist D
potency relative to Antagonist D as antagonist of growth induced by bradykinin [4]: less potent
